Source: publication PMC10809768
These are yes or no findings as the source states them, for the method shown. Binding seen in cells or lysates may run through a third protein. These calls come from enrichment with a bait or labelling near it, and not all partners need be listed.

Sequences of proteins named here, by UniProt entry; tags and fusion partners are left off.
UniProt Q969H0: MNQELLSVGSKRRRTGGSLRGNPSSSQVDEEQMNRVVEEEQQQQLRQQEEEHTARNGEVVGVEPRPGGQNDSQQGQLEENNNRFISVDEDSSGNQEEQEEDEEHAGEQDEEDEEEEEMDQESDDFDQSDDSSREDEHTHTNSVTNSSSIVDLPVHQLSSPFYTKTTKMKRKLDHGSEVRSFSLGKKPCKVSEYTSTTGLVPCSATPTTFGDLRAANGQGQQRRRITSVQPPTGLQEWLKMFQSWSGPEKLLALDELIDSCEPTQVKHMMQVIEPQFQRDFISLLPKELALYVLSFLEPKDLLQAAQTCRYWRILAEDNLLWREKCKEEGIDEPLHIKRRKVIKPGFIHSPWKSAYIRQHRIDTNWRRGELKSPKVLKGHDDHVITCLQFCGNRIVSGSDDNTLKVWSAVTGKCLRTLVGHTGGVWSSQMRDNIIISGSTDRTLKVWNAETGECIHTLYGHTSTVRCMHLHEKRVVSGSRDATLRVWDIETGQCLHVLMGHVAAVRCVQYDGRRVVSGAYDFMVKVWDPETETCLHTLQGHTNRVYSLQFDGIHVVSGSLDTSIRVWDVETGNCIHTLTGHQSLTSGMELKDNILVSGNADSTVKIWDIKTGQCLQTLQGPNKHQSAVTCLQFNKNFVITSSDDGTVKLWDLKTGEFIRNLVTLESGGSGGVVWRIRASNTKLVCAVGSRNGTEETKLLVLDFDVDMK
UniProt Q14839: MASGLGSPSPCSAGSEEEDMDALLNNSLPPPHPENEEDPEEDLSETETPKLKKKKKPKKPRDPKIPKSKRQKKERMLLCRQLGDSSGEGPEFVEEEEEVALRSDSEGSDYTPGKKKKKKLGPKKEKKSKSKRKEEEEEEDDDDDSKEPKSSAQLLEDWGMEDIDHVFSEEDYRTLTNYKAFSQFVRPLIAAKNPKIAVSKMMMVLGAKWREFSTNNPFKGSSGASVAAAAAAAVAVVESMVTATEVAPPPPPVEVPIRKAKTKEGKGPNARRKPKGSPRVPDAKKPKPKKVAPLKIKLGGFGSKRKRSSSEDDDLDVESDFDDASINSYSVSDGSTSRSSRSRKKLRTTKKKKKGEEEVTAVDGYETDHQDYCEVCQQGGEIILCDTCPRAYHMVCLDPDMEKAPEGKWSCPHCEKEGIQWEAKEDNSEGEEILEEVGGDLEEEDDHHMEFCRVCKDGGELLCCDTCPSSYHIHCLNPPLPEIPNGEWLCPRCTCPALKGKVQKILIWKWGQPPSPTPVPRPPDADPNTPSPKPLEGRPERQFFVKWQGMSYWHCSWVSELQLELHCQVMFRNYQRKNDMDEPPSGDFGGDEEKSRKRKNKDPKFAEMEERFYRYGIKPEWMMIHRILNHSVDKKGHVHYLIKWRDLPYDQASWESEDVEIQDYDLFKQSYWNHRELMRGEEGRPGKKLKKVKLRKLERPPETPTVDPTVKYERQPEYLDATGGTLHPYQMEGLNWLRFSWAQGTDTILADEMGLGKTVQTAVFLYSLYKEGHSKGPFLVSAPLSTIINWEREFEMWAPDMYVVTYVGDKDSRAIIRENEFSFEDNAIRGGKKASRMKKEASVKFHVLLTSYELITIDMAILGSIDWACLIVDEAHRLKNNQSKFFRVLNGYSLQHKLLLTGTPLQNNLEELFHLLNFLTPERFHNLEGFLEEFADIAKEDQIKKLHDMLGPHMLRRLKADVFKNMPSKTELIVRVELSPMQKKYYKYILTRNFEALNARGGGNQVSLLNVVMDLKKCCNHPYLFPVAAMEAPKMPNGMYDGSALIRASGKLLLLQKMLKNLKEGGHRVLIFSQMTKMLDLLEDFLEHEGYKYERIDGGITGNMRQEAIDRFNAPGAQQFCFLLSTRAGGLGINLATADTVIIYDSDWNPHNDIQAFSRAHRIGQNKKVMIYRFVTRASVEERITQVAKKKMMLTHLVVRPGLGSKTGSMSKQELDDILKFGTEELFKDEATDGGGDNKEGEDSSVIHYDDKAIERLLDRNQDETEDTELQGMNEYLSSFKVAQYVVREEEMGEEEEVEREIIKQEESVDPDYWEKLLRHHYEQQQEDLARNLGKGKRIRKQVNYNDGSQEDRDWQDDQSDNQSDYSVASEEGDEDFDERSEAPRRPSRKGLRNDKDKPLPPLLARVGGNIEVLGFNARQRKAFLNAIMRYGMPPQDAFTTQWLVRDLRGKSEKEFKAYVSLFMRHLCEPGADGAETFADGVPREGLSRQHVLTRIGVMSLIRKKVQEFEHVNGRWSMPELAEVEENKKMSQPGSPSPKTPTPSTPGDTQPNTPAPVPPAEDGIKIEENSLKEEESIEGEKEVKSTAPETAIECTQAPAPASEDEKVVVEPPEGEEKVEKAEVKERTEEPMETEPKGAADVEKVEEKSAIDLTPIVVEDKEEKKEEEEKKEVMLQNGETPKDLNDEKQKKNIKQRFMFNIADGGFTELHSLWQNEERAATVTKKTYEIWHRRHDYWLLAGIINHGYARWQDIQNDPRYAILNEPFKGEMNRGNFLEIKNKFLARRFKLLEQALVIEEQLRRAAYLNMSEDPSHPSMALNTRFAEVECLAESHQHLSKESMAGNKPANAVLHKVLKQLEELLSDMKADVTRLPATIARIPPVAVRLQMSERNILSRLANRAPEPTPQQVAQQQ

Target: epitope-tagged FBXW7 (bait of the IP-MS) (human) (UniProt Q969H0)
Test: affinity purification with mass spectrometry; epitope-tagged FBXW7 immunoprecipitated, coprecipitating proteins identified by mass spectrometry; cells not given

## CHD4 (found in the IP-MS of FBXW7) (from UniProt Q14839 1-1912)
  binding: binds
